Experimental data reported in PubChem BioAssay AID1347423 (Functional Genomics Laboratory (NCATS/FGL), 2020).
The whole screen tested about 52,000 sequences, of which about 210 (0.4%) were called active.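 The calls were made as follows: active = gene whose silencing raises cell survival under the drug, median off-target-corrected z-score across its silencing RNAs 2 or more; inactive = the rest.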 This is one part of the list.

Assay: Resistance to Poly (ADP-Ribose) Polymerase inhibitor: Gene Identification via Genome-wide siRNA Screen
Settings: mouse BRCA2 R2336H ES cells, olaparib, CellTiter-Glo viability; hits give high values
Procedure, shortened: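 Mouse BRCA2 R2336H ES cells were reverse-transfected with siRNA (20 nM final), treated at 48 h with 500 nM olaparib, and read by CellTiter-Glo after 72 h. Scores: MAD-based z per siRNA, median per gene, seed off-target correction.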

| Sequence | z-score |
| --- | --- |
| GGACCAGGAUCAGUUGAUCTT against Olfr1406 | inactive: 0.717 |
| CGGACAAAGGACGAGUGUUTT against BC032265 | inactive: -3 |
| CCUUGGAAUUCAUCAACGGTT against 4930432O21Rik | inactive: -0.295 |
| GGAAUUAGAGACUGCGGAATT against 4930566A11Rik | inactive: 1.36 |
| CCACAUACAUUUCACAGGGTT against 1810019J16Rik | inactive: -0.517 |
| CCACUGGCUACCACAUGUUTT against 9330151E16Rik | inactive: -0.222 |
| CCAUGAUCGCUAGUGAAGCTT against Mrpl24 | inactive: -1.2 |
| GGGUAUCAACCACUUUUUUTT against Serping1 | inactive: 0.572 |
| GGGCACACACUUCAAUUUUTT against Sap18 | inactive: 1.66 |
| GGAUAUGAAACAAUAACAGTT against Arid5b | inactive: 0.223 |
| GCAGUGGAAGUGAAUCUCGTT against BC016198 | inactive: 1.95 |
| GGAGAUAUAAUCAGUGUGGTT against 0710007A14Rik | inactive: -0.327 |
| GGAACUGAUGAAUAUUUCATT against Chrnb1 | active: 0.177 |
| CCUACAACUCAGCGCAUGATT against Ptgs1 | inactive: 0.526 |
| CGGCUGACUACAUUUCAAGTT against Camk4 | inactive: -1.24 |
| GCAAAUGUAAUGGUGAAAGTT against Cldn1 | inactive: 0.948 |
| GGAAUCUUCUCAGCUUAAUTT against Slc17a2 | inactive: 0.117 |
| GGGAAACUCCAGUUCAAAGTT against Zfp238 | inactive: -0.172 |
| GCCGGAAUCAGUGAAAGGCTT against Fln29 | inactive: -0.301 |
| GGUCUUUCCGGCAGUUCUUTT against Rxrg | inactive: -2.09 |
| GGGCAAUCUGAGCAAUUGUTT against Wnt7b | inactive: -1.1 |
| CCUAUAGCUUCGGCAAGACTT against B930074I24 | inactive: 0.513 |

In a second layout: results already given
Sequence,z-score
GGGCACACACUUCAAUUUUTT against Sap18,inactive: 1.66
GGAGAUAUAAUCAGUGUGGTT against 0710007A14Rik,inactive: -0.327
CCUAUAGCUUCGGCAAGACTT against B930074I24,inactive: 0.513

(listing goes on)

| Sequence | z-score |
| --- | --- |
| GGGAAGGAUUUUUGAUGAUTT against Arfgap1 | inactive: 1.46 |
| GGUGGGCCUUUGUCUCAACTT against 4833441J24Rik | inactive: -0.116 |
| CGGCUCACUAGCAGUGUCUTT against Ppm1b | inactive: 1.5 |
| GGCCAUUAACAGCAGUCUGTT against Kifc1 | inactive: -2.66 |
| GGAGAAACUUCUUUAAAGCTT against 5830427D03Rik | inactive: 0.725 |
| GGUCUGUGACGAGAAGCUATT against Rab4a | inactive: -1.24 |
| CCAAAUAUUACAAACUCGGTT against Sgk | inactive: 0.652 |
| GGAUCAGUACCUGUGAUGGTT against Adamdec1 | inactive: -0.51 |
| GGAAGAGGACAACCAGCUCTT against Kai1 | inactive: -1.09 |
| GGUUCUUUUCAGCUCAUUATT against 4930547C10Rik | inactive: -1.32 |
| GGAGAUUAACAAGUGGUGGTT against D16Ertd607e | inactive: -0.0996 |
| GGAGAAAGUCUACCUGAGCTT against C630028F04Rik | inactive: -1.14 |
| GGCAGAACACUGAAAGGGATT against Mrps11 | inactive: -0.109 |
| GGGACAACCCAUCAACAAUTT against Catsper1 | inactive: 1.1 |
| GGAUAAACGGACAGGCCCATT against Socs2 | inactive: 0.465 |
| GCCUUUCGAUUCUAAUUGCTT against Fkbp6 | inactive: -0.0166 |
| CCAAUGUGCUCAUGCUCUATT against Nodal | inactive: -1.98 |
| GCUCUCUGACCUUGAUUGGTT against 0910001K20Rik | inactive: 0.0905 |
| CCAGAUCCUAAAGUCUUUATT against 4931412G03Rik | inactive: 0.0284 |
| CGAGAACCCUGACAUAAUCTT against Ddx54 | inactive: -1.11 |
| GCCACAAAUCGAAUCUUACTT against Zfp146 | inactive: 0.652 |
| GGAGACGAAUCCUUUCAGUTT against Misc12 | inactive: 0.0807 |

| Sequence | z-score |
| --- | --- |
| GGAGGAUGGCUUUACCGCATT against 2210008I11Rik | inactive: 0.56 |
| GGAUCAUGGUCCUGUCUUUTT against Rlbp1 | inactive: 0.0172 |
| GGUUCAUAGUCUGUUAUGATT against Skd3 | inactive: 0.236 |
| GCUCGAAGAAAGGCCCUGATT against B430306N03Rik | inactive: -1.71 |
| GGAUGAUACUUCAUUACACTT against Ankrd12 | inactive: -0.613 |
| GGGAGACUCUCAUUUAAAUTT against Casp3 | inactive: -0.207 |
| GGGAUAAAGGCACUUUGUATT against 4732435N03Rik | inactive: -1.47 |
| GCAGACUUACAUCCGGAAGTT against 1110037P11Rik | inactive: -0.657 |
| CCUGGCAGAUGGAUUCGUATT against Kif6 | inactive: -0.935 |
| GCUCGUACAUCUAUGGCUATT against Psmb6 | inactive: -3 |
| GGGAAGAUCAGCUUUCAUATT against Pak1ip1 | inactive: -0.291 |
| GGGAAAAAGAACAAGAUCATT against 2410017P07Rik | inactive: 0.591 |
| CCACGUCCUAAGAGACAUUTT against Eps8l3 | inactive: -0.96 |
| GGAGAACAGUUUCAAGAUGTT against Rnf152 | inactive: 1.09 |
| GGACCUGACCUUGCUGUUATT against Fancg | inactive: 2.31 |
| GGACAAAACCAUCUCCUUCTT against Olfr17 | inactive: 0.251 |
| GGAGCUCAUAUACACCUGCTT against 2810481F14Rik | inactive: -0.373 |
| GGAAUGGAACACAAAUAGCTT against Kdelr2 | inactive: 0.105 |
| GGAGUUCACUGUGCUGAUGTT against Cxcl7 | inactive: -1.02 |
| GGUAUUAUGACCAGAUUAUTT against Plxnb3 | inactive: -1.86 |
| GGAGAUUCGGAAAAUGUGUTT against D8Wsu151e | inactive: 0.552 |
| GUUUAACUACAACAAUGAGTT against Dcpp | inactive: 0.548 |

Pulled one by one from the entries so far:

| Sequence | z-score |
| --- | --- |
| CCAUGAUCGCUAGUGAAGCTT against Mrpl24 | inactive: -1.2 |
| GCUCUCUGACCUUGAUUGGTT against 0910001K20Rik | inactive: 0.0905 |
